Laboratory results taken from US12258376B2, “Fusion protein of DCTN1 protein with RET protein” (TAIHO PHARMACEUTICAL CO., LTD., priority 2017, dated 2025).
At least one structure is not confirmed: it was looked up by name or label, or the drawing left a doubt.

Test system: DCTN1-RET fusion gene-expressing NIH/3T3 cells
Assay: In vitro cell growth assay, 3-dimensional cell culture, intracellular ATP luminescence (CellTiter-Glo 2.0)
Settings: result in words, as shown in Table 7

COc1cc2nccc(Oc3ccc(NC(=O)C4(C(=O)Nc5ccc(F)cc5)CC4)cc3)c2cc1OC [Cabozantinib]
growth of DCTN1-RET fusion gene-expressing NIH/3T3 cells: inhibited the growth
